According to patent US8524863B2, “Amyloid-beta peptide crystal structure” (Commonwealth Scientific and Industrial Research Organisation, priority 2008, dated 2013):

B1: 37D-4: Aβ-IgNAR variant with Leu34Pro ("Wurth") mutation (protein)
VHH: AWVDQTPRTATKETGESLTINCVLRDASFELKDTGWYRTKLGSTNEQSISIGGRYVETVNKGSKSFSLRISDLRVEDSGTYKCQAFYVFFAEDVGSNKGAIIGPMVGGVVIGGEKGAGTALTVKAAADYKDDDDKAADYKDDDDK
B2: 12Y-2: wild type shark IgNAR single variable domain antibody, FLAG × 2 tag (protein)
VHH: AWVDQTPRTATKETGESLTINCVLRDASFELKDTGWYRTKLGSTNEQSISIGGRYVETVNKGSKSFSLRISDLRVEDSGTYKCQAFYSLPLGDYNYSLLFRGEKGAGTALTVKAAADYKDDDDKAADYKDDDDK
modifications: FLAG x2 tag
notes: wild type shark IgNAR single variable domain antibody, FLAG × 2 tag
B3: Aβ-IgNAR-G1: fusion of amyloid β-peptide Aβ(18-41) within CDR3 loop of IgNAR 12Y-2, FLAG × 2 tag (protein)
VHH: B1 VHH with P104L
modifications: FLAG x2 tag
notes: fusion of amyloid β-peptide Aβ(18-41) within CDR3 loop of IgNAR 12Y-2, FLAG × 2 tag

Experiment: Western blot / SDS-PAGE assessment of dimerisation and tetramerisation of recombinant Aβ-IgNAR proteins
Conditions: for dimerization by Western blot: recombinant protein from E. coli periplasmic space

| Molecule | dimerization by Western blot | resistance of dimer to β-mercaptoethanol treatment (upon affinity purification) | tetrameric species by SDS-PAGE (affinity-purified, absence of heating/reducing agent) |
| --- | --- | --- | --- |
| B1 | non-dimerizing | not resistant to β-mercaptoethanol treatment | – |
| B2 | non-dimerizing | – | – |
| B3 | – | – | formation of tetrameric (arrowed) species |

Residue numbers refer to the chain shown, from its start.
